In assay [1] the target is T1, DNAJC9-Q224A-R227A-M238A-Y242A-MYC-Flag (4A) (human) (UniProt Q8WXX5).
T1 sequence: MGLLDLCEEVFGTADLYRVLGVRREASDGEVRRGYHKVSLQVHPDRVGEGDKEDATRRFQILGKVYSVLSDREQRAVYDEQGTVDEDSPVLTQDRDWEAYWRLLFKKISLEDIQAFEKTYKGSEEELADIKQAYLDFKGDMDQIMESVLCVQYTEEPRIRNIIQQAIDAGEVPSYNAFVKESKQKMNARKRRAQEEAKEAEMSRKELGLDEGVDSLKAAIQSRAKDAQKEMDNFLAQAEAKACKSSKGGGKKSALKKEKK
In words: affinity purification with mass spectrometry; label-free; DNAJC9-Myc-Flag WT, J, 4A and control purifications on anti-Flag M2 beads from MNase-digested U-2-OS chromatin extracts; n = 6.

Assay [2] deals with T2, DNAJC9-H43Q-D45N-MYC-Flag (J) (human) (UniProt Q8WXX5).
T2 sequence: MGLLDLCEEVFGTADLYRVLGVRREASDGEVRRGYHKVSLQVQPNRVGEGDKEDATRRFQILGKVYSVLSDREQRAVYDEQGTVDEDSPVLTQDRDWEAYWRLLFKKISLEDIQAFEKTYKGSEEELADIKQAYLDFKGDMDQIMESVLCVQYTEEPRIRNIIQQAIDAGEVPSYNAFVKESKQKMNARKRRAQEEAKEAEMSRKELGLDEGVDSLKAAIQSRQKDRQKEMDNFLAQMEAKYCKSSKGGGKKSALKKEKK
The assay is described as above.

The target in assay [3] is T3, DNAJC9-MYC-Flag WT (human) (UniProt Q8WXX5).
T3 sequence: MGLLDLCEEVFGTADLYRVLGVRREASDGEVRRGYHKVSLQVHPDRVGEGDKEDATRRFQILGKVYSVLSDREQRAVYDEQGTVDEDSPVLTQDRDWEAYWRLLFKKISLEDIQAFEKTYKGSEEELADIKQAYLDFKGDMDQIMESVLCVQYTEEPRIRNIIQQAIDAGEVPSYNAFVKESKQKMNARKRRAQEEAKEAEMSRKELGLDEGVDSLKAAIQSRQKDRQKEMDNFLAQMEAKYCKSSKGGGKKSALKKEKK
Described as above.

Assay [4] deals with T1, DNAJC9-Q224A-R227A-M238A-Y242A-MYC-Flag (4A) (human). As to the kind of experiment: affinity purification with mass spectrometry; triple SILAC; DNAJC9-Myc-Flag WT, 4A and control purifications on anti-Flag M2 beads from U-2-OS extracts; n = 2.

No constants are given. Whether binding was seen depends on the method and setting. Binding seen in cells or lysates may run through a third protein. These calls come from enrichment with a bait or labelling near it, and not all partners need be listed. For some of these results: A no says only that the protein was not detected with the bait. Tags and fused reporters may be left off the sequences shown.

These results are taken from publication PMC8221569.

B1: SPT2 (endogenous) (protein, UniProt Q68D10 1-685)
chain: MDFREILMIASKGQGVNNVPKRYSLAVGPPKKDPKVKGVQSAAVQAFLKRKEEELRRKALEEKRRKEELVKKRIELKHDKKARAMAKRTKDNFHGYNGIPIEEKSKKRQATESHTSQGTDREYEMEEENEFLEYNHAESEQEYEEEQEPPKVESKPKVPLKSAPPPMNFTDLLRLAEKKQFEPVEIKVVKKSEERPMTAEELREREFLERKHRRKKLETDGKLPPTVSKKAPSQKESVGTKLSKGSGDRHPSSKGMPLPHAEKKSRPSMANEKHLALSSSKSMPGERIKAGSGNSSQPSLREGHDKPVFNGAGKPHSSTSSPSVPKTSASRTQKSAVEHKAKKSLSHPSHSRPGPMVTPHNKAKSPGVRQPGSSSSSAPGQPSTGVARPTVSSGPVPRRQNGSSSSGPERSISGSKKPTNDSNPSRRTVSGTCGPGQPASSSGGPGRPISGSVSSARPLGSSRGPGRPVSSPHELRRPVSGLGPPGRSVSGPGRSISGSIPAGRTVSNSVPGRPVSSLGPGQTVSSSGPTIKPKCTVVSETISSKNIISRSSNGQMNGMKPPLSGYRAAQGPQRLPFPTGYKRQREYEEEDDDDDEYDSEMEDFIEDEGEPQEEISKHIREIFGYDRKKYKDESDYALRYMESSWKEQQKEEAKSLRLGMQEDLEEMRREEEEMQRRRAKKLKRR
Turning to B1, the binding result in assay [1], in assay [2] and in assay [3] was “binds” each time.

B2: TONSL (endogenous) (protein, UniProt Q96HA7 1-1378)
chain: MSLERELRQLSKAKAKAQRAGQRREEAALCHQLGELLAGHGRYAEALEQHWQELQLRERADDPLGCAVAHRKIGERLAEMEDYPAALQHQHQYLELAHSLRNHTELQRAWATIGRTHLDIYDHCQSRDALLQAQAAFEKSLAIVDEELEGTLAQGELNEMRTRLYLNLGLTFESLQQTALCNDYFRKSIFLAEQNHLYEDLFRARYNLGTIHWRAGQHSQAMRCLEGARECAHTMRKRFMESECCVVIAQVLQDLGDFLAAKRALKKAYRLGSQKPVQRAAICQNLQHVLAVVRLQQQLEEAEGRDPQGAMVICEQLGDLFSKAGDFPRAAEAYQKQLRFAELLDRPGAERAIIHVSLATTLGDMKDHHGAVRHYEEELRLRSGNVLEEAKTWLNIALSREEAGDAYELLAPCFQKALSCAQQAQRPQLQRQVLQHLHTVQLRLQPQEAPETETRLRELSVAEDEDEEEEAEEAAATAESEALEAGEVELSEGEDDTDGLTPQLEEDEELQGHLGRRKGSKWNRRNDMGETLLHRACIEGQLRRVQDLVRQGHPLNPRDYCGWTPLHEACNYGHLEIVRFLLDHGAAVDDPGGQGCEGITPLHDALNCGHFEVAELLLERGASVTLRTRKGLSPLETLQQWVKLYRRDLDLETRQKARAMEMLLQAAASGQDPHSSQAFHTPSSLLFDPETSPPLSPCPEPPSNSTRLPEASQAHVRVSPGQAAPAMARPRRSRHGPASSSSSSEGEDSAGPARPSQKRPRCSATAQRVAAWTPGPASNREAATASTSRAAYQAAIRGVGSAQSRLGPGPPRGHSKALAPQAALIPEEECLAGDWLELDMPLTRSRRPRPRGTGDNRRPSSTSGSDSEESRPRARAKQVRLTCMQSCSAPVNAGPSSLASEPPGSPSTPRVSEPSGDSSAAGQPLGPAPPPPIRVRVQVQDHLFLIPVPHSSDTHSVAWLAEQAAQRYYQTCGLLPRLTLRKEGALLAPQDLIPDVLQSNDEVLAEVTSWDLPPLTDRYRRACQSLGQGEHQQVLQAVELQGLGLSFSACSLALDQAQLTPLLRALKLHTALRELRLAGNRLGDKCVAELVAALGTMPSLALLDLSSNHLGPEGLRQLAMGLPGQATLQSLEELDLSMNPLGDGCGQSLASLLHACPLLSTLRLQACGFGPSFFLSHQTALGSAFQDAEHLKTLSLSYNALGAPALARTLQSLPAGTLLHLELSSVAAGKGDSDLMEPVFRYLAKEGCALAHLTLSANHLGDKAVRDLCRCLSLCPSLISLDLSANPEISCASLEELLSTLQKRPQGLSFLGLSGCAVQGPLGLGLWDKIAAQLRELQLCSRRLCAEDRDALRQLQPSRPGPGECTLDHGSKLFFRRL
As for B2, the binding result in assay [4] was “no binding”.
